Results are given in words; binding and its absence hold for the method and conditions named. In cells and extracts the contact can be indirect. Some binding calls cover weakened binding; strength is not graded here. Tags and fused reporters may be left off the sequences shown.

Sequences of proteins named here, by UniProt entry; tags and fusion partners are left off.
UniProt P27641: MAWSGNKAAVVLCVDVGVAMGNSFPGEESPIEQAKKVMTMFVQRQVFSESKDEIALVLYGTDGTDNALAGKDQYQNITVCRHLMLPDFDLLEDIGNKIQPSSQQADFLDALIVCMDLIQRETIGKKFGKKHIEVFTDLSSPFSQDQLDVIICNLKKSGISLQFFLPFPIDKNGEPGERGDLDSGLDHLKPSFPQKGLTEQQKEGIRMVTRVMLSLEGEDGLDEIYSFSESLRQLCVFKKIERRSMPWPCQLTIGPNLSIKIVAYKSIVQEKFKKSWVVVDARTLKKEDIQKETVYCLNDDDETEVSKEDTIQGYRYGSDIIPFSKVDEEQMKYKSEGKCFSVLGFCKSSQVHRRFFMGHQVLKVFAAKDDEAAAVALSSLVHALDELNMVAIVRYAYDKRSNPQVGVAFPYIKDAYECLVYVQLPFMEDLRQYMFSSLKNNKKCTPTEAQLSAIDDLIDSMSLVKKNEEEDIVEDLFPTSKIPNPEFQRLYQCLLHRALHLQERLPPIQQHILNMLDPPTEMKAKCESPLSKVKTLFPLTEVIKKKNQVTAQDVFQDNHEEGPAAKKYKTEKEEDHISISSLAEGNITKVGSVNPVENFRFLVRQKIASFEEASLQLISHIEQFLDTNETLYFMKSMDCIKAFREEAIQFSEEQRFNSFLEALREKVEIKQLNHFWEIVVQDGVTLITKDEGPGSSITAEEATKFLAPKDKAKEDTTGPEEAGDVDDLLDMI

T1: GFP tagged RBM14 (Gfp-Rbm14) (mouse) (UniProt Q8C2Q3)
T1 sequence: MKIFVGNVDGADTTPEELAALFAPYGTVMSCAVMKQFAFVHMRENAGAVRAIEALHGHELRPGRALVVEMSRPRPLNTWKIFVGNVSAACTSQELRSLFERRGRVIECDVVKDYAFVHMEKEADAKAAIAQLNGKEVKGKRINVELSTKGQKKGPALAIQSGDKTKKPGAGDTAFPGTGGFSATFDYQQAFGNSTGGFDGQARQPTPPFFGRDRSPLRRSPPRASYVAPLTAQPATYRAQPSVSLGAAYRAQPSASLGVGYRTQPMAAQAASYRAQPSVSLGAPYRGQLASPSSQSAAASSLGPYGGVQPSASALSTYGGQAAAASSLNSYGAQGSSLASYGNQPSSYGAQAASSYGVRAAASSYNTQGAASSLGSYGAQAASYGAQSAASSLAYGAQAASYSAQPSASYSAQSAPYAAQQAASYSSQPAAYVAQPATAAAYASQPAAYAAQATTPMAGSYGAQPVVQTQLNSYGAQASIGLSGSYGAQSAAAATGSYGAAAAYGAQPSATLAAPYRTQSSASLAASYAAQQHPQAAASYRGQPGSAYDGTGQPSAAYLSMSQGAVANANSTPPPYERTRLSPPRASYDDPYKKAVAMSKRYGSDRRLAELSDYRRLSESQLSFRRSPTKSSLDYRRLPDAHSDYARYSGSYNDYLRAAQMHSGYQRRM

B1: SF3B1 (protein, UniProt Q99NB9 1-1304)
chain: MAKIAKTHEDIEAQIREIQGKKAALDEAQGVGLDSTGYYDQEIYGGSDSRFAGYVTSIAATELEDDDDDYSSSTSLLGQKKPGYHAPVALLNDIPQSTEQYDPFAEHRPPKIADREDEYKKHRRTMIISPERLDPFADGGKTPDPKMNARTYMDVMREQHLTKEEREIRQQLAEKAKAGELKVVNGAAASQPPSKRKRRWDQTADQTPGATPKKLSSWDQAETPGHTPSLRWDETPGRAKGSETPGATPGSKIWDPTPSHTPAGAATPGRGDTPGHATPGHGGATSSARKNRWDETPKTERDTPGHGSGWAETPRTDRGGDSIGETPTPGASKRKSRWDETPASQMGGSTPVLTPGKTPIGTPAMNMATPTPGHIMSMTPEQLQAWRWEREIDERNRPLSDEELDAMFPEGYKVLPPPAGYVPIRTPARKLTATPTPLGGMTGFHMQTEDRTMKSVNDQPSGNLPFLKPDDIQYFDKLLVDVDESTLSPEEQKERKIMKLLLKIKNGTPPMRKAALRQITDKAREFGAGPLFNQILPLLMSPTLEDQERHLLVKVIDRILYKLDDLVRPYVHKILVVIEPLLIDEDYYARVEGREIISNLAKAAGLATMISTMRPDIDNMDEYVRNTTARAFAVVASALGIPSLLPFLKAVCKSKKSWQARHTGIKIVQQIAILMGCAILPHLRSLVEIIEHGLVDEQQKVRTISALAIAALAEAATPYGIESFDSVLKPLWKGIRQHRGKGLAAFLKAIGYLIPLMDAEYANYYTREVMLILIREFQSPDEEMKKIVLKVVKQCCGTDGVEANYIKTEILPPFFKHFWQHRMALDRRNYRQLVDTTVELANKVGAAEIISRIVDDLKDEAEQYRKMVMETIEKIMGNLGAADIDHKLEEQLIDGILYAFQEQTTEDSVMLNGFGTVVNALGKRVKPYLPQICGTVLWRLNNKSAKVRQQAADLISRTAVVMKTCQEEKLMGHLGVVLYEYLGEEYPEVLGSILGALKAIVNVIGMHKMTPPIKDLLPRLTPILKNRHEKVQENCIDLVGRIADRGAEYVSAREWMRICFELLELLKAHKKAIRRATVNTFGYIAKAIGPHDVLATLLNNLKVQERQNRVCTTVAIAIVAETCSPFTVLPALMNEYRVPELNVQNGVLKSLSFLFEYIGEMGKDYIYAVTPLLEDALMDRDLVHRQTASAVVQHMSLGVYGFGCEDSLNHLLNYVWPNVFETSPHVIQAVMGALEGLRVAIGPCRMLQYCLQGLFHPARKVRDVYWKIYNSIYIGSQDALIAHYPRIYNDDKNTYIRYDLDYIL
B2: SF3B3 (protein, UniProt Q921M3 1-1217)
chain: MFLYNLTLQRATGISFAIHGNFSGTKQQEIVVSRGKILELLRPDPNTGKVHTLLTVEVFGVIRSLMAFRLTGGTKDYIVVGSDSGRIVILEYQPSKNMFEKIHQETFGKSGCRRIVPGQFLAVDPKGRAVMISAIEKQKLVYILNRDAAARLTISSPLEAHKANTLVYHVVGVDVGFENPMFACLEMDYEEADNDPTGEAAANTQQTLTFYELDLGLNHVVRKYSEPLEEHGNFLITVPGGSDGPSGVLICSENYITYKNFGDQPDIRCPIPRRRNDLDDPERGMIFVCSATHKTKSMFFFLAQTEQGDIFKITLETDEDMVTEIRLKYFDTVPVAAAMCVLKTGFLFVASEFGNHYLYQIAHLGDDDEEPEFSSAMPLEEGDTFFFQPRPLKNLVLVDELDSLSPILFCQIADLANEDTPQLYVACGRGPRSSLRVLRHGLEVSEMAVSELPGNPNAVWTVRRHIEDEFDAYIIVSFVNATLVLSIGETVEEVTDSGFLGTTPTLSCSLLGDDALVQVYPDGIRHIRADKRVNEWKTPGKKTIVKCAVNQRQVVIALTGGELVYFEMDPSGQLNEYTERKEMSADVVCMSLANVPPGEQRSRFLAVGLVDNTVRIISLDPSDCLQPLSMQALPAQPESLCIVEMGGTEKQDELGERGSIGFLYLNIGLQNGVLLRTVLDPVTGDLSDTRTRYLGSRPVKLFRVRMQGQEAVLAMSSRSWLSYSYQSRFHLTPLSYETLEFASGFASEQCPEGIVAISTNTLRILALEKLGAVFNQVAFPLQYTPRKFVIHPESNNLIIIETDHNAYTEATKAQRKQQMAEEMVEAAGEDERELAAEMAAAFLNENLPESIFGAPKAGNGQWASVIRVMNPIQGNTLDLVQLEQNEAAFSVAVCRFSNTGEDWYVLVGVAKDLILSPRSVAGGFVYTYKLVNNGEKLEFLHKTPVEEVPAAIAPFQGRVLIGVGKLLRVYDLGKKKLLRKCENKHIANYISGIQTIGHRVIVSDVQESFIWVRYKRNENQLIIFADDTYPRWVTTASLLDYDTVAGADKFGNICVVRLPPNTNDEVDEDPTGNKALWDRGLLNGASQKAEVIMNYHVGETVLSLQKTTLIPGGSESLVYTTLSGGIGILVPFTSHEDHDFFQHVEMHLRSEHPPLCGRDHLSFRSYYFPVKNVIDGDLCEQFNSMEPNKQKNVSEELDRTPPEVSKKLEDIRTRYAF

In the assay the target is T1, GFP tagged RBM14 (Gfp-Rbm14) (mouse). Nature of the assay: co-IP; anti-GFP antibody (Abcam ab290) or IgG cross-linked (DSS) to Protein A/G magnetic beads; lysate of mouse ESCs (1 x 10^7 cells), 4°C overnight; five washes; eluate to western blot. (In general: A western blot detects proteins with antibodies after separation by electrophoresis.)
Consider Ku80 (from UniProt P27641 1-732), for which the binding entry is listed as “no binding”.
To B1 belongs “binds”; to B2, “binds”.
